Data reported in PMC3871824.
For some assays here: Weaker means in comparison with the reference protein, sequence or condition of that experiment. For some assays here: Where a protein sequence is shown, tags need not be part of it.

Assays:
[1] = molecular target: T1, SbABI4 (rABI4) (Sorghum bicolor (inbred line IS9530)) (UniProt A0A1B6P7N1); experiment: EMSA; settings: 25 mM Tris-HCl pH 7.4, 30 mM KCl, 3 mM MgCl2, 0.5 mM EDTA, 14 mM 2-mercaptoethanol, 1 mM DTT, 10% glycerol, 0.05% NP-40, 10 ug/ml BSA, recombinant protein, protein details: C-terminal His (pET24a), label: 5'-biotin on strand 1
[2] = molecular target: T2, SbABI5 (rABI5) (Sorghum bicolor (inbred line IS9530)) (UniProt C5XSV4); experiment: EMSA; settings: 25 mM Tris-HCl pH 7.4, 30 mM KCl, 3 mM MgCl2, 0.5 mM EDTA, 14 mM 2-mercaptoethanol, 1 mM DTT, 10% glycerol, 0.05% NP-40, 10 ug/ml BSA, recombinant protein, protein details: C-terminal His (pET24a), label: 5'-biotin on strand 1
T2 sequence (looked up, limits assumed): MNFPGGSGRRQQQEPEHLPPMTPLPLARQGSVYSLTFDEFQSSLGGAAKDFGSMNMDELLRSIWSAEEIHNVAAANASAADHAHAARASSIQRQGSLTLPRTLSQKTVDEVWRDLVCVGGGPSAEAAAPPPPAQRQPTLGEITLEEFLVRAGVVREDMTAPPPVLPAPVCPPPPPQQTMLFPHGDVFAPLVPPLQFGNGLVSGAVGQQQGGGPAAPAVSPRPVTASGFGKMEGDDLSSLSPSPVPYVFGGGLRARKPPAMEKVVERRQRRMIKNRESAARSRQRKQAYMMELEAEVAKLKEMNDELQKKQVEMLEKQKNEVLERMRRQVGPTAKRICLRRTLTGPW

[3] = molecular target: T1, SbABI4 (rABI4) (Sorghum bicolor (inbred line IS9530)); experiment: competition with a labelled probe; settings: 200-600 ng vs 40 ng N1, full displacement; 25 mM Tris-HCl pH 7.4, 30 mM KCl, 3 mM MgCl2, 0.5 mM EDTA, 14 mM 2-mercaptoethanol, 1 mM DTT, 10% glycerol, 0.05% NP-40, 10 ug/ml BSA, 50 ug/ml salmon sperm DNA; recombinant protein; protein details: C-terminal His (pET24a)
[4] = molecular target: T2, SbABI5 (rABI5) (Sorghum bicolor (inbred line IS9530)); experiment: competition with a labelled probe; settings: 200-600 ng vs 40 ng N1, full displacement; 25 mM Tris-HCl pH 7.4, 30 mM KCl, 3 mM MgCl2, 0.5 mM EDTA, 14 mM 2-mercaptoethanol, 1 mM DTT, 10% glycerol, 0.05% NP-40, 10 ug/ml BSA, 50 ug/ml salmon sperm DNA; recombinant protein; protein details: C-terminal His (pET24a)
[5] = two complexes, 50 ug/ml salmon sperm DNA
[6] = only traces of complex, 50 ug/ml salmon sperm DNA

“GGGCGCCGTGGGAAAACTGCTATTGGCCGGCGTGCCATCGCCTCGTATCGTATGCGTCTCCCATGGAGCCATGCATGCAGCGCGGCGGGCCGACCTGCCACCGGTGGATCGCGTCCGGACACGTCGCGCCCCGGACCCCGACTGCCCTGGCTCCATCGGCACCGTGCACCCAAAGCGATCCCACCCCCGATGCATCCTTTTCGTCTCCCTGTCAGCTGGGTCCCATCCAGCCAGGTGCCGCC (double strand) [SbGA2ox3 promoter probe 242 bp]”: binds [1, 5]; binds [2, 5].

“GGGCGCCGTGGGAAAACTGCTATTGGCCGGCGTGCCATCGCCTCGTATCGTATGCGTCTCCCATGGAGCCATGCATGCAGCGCGGCGGGCCGACCTGCTTCCGGTGGATCGCGT (double strand) [SbGA2ox3 probe c (mutated CE, no ABRE)]”: binds more weakly [1, 6]; binds more weakly [2, 6].

“GGGCGCCGTGGGAAAACTGCTATTGGCCGGCGTGCCATCGCCTCGTATCGTATGCGTCTCCCATGGAGCCATGCATGCAGCGCGGCGGGCCGACCTGCCACCGGTGGATCGCGTCCGGACAATTCGCGCCC (double strand) [SbGA2ox3 probe b (mutated ABRE)]”: binds more weakly ([1]; 50 ug/ml salmon sperm …); binds more weakly ([2]; 50 ug/ml salmon sperm …).

“GGGCGCCGTGGGAAAACTGCTATTGGCCGGCGTGCCATCGCCTCGTATCGTATGCGTCTCCCATGGAGCCATGCATGCAGCGCGGCGGGCCGACCTGCCACCGGTGGATCGCGTCCGGACACGTCGCGCCCCGGACCCCGACTGCCCTGGCTCCATCGGCACCGTGCACCCAAAGCGATCCCACCCCCGATGCATCCTTTTCGTCTCCCTGTCAGCTGGGTCCCATCCAGCCAGGTGCCGCC (double strand) [SbGA2ox3 242 bp unlabelled specific competitor]”: binds [3]; binds [4].
